Reference: PMC4568517
No constants are given. Whether binding was seen depends on the method and setting. In cells and extracts the contact can be indirect. Some binding calls cover weakened binding; strength is not graded here.

Chains of the proteins cited; added tags and fusions are not shown.
UniProt O08537: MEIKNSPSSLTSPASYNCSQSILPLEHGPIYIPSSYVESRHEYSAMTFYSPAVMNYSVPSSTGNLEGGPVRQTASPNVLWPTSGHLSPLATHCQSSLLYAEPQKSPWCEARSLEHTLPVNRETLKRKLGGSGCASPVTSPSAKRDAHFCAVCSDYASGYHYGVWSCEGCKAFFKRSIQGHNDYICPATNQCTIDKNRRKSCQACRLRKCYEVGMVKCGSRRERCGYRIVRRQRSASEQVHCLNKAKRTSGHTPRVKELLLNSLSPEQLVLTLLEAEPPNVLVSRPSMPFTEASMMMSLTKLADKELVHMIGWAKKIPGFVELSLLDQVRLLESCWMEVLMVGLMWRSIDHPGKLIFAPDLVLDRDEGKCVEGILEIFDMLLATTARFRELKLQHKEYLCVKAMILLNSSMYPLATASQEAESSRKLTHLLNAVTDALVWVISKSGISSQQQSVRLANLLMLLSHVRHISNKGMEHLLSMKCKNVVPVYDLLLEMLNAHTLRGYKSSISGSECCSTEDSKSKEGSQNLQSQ
UniProt Q04207: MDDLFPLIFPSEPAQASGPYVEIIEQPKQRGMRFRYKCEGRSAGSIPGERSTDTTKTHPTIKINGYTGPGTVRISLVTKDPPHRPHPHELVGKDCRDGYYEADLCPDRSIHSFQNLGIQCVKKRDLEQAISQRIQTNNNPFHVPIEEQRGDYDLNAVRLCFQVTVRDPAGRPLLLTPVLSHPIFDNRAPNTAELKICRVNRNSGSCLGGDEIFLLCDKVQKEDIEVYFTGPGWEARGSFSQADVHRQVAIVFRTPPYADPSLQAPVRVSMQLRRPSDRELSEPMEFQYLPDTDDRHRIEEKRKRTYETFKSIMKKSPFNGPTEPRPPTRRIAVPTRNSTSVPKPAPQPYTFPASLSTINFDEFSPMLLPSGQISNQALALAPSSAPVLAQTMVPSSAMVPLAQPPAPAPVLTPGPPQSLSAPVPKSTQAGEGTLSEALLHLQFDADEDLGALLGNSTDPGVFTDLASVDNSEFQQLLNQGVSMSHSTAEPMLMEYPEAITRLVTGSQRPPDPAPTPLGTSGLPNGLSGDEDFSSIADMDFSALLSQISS
UniProt P19785: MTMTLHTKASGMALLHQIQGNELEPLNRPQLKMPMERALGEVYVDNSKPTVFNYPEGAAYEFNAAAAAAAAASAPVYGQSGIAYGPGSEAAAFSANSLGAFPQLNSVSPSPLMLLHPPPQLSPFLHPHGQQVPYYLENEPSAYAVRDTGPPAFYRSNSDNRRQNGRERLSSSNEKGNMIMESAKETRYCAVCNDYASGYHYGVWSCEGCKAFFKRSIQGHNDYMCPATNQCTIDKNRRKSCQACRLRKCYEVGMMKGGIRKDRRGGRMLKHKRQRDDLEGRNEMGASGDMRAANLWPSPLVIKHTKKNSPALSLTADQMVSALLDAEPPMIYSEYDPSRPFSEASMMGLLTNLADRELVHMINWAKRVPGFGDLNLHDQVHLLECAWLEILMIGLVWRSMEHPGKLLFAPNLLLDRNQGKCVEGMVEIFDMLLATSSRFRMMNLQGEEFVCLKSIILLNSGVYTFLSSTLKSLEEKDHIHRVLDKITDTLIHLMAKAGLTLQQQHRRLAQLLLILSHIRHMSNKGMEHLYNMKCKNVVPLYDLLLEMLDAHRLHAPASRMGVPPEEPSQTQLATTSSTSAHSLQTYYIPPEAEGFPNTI

Columns and labels:
[1] = target: estrogen receptor β (mouse (endogenous in frontal cortex of Swiss albino mice)) (UniProt O08537); assay: co-IP; as a1; tamoxifen supplemented prior to MPTP, female mice, day1, day3, day7
[2] = target: estrogen receptor β (mouse (endogenous in frontal cortex of Swiss albino mice)) (UniProt O08537); assay: condition: only tamoxifen supplemented prior to MPTP treatment, male mice; co-IP; as a1; tamoxifen supplemented prior to MPTP, male mice, day1, day3, day7
[3] = target: estrogen receptor β (mouse (endogenous in frontal cortex of Swiss albino mice)) (UniProt O08537); assay: condition: only estrogen supplemented prior to MPTP treatment, female mice; co-IP; as a1; estrogen supplemented prior to MPTP, female mice
[4] = target: estrogen receptor β (mouse (endogenous in frontal cortex of Swiss albino mice)) (UniProt O08537); assay: co-IP; as a1; MPTP-treated male mice, day1, day3, day7
[5] = target: estrogen receptor β (mouse (endogenous in frontal cortex of Swiss albino mice)) (UniProt O08537); assay: condition: only estrogen supplemented and estrogen receptors blocked (tamoxifen) prior to MPTP treatment; co-IP; as a1; estrogen + tamoxifen supplemented prior to MPTP, male and female mice
[6] = target: estrogen receptor β (mouse (endogenous in frontal cortex of Swiss albino mice)) (UniProt O08537); assay: co-IP; about 100 μg protein of frontal cortex (nuclear fractionation) of male and female mice precipitated with anti-ERβ overnight at 4 °C, Protein G agarose, washed with PBS, western blot for ERα, p65, RelB; groups: control, MPTP, estrogen + MPTP, tamoxifen + MPTP, estrogen + tamoxifen + MPTP; sacrifice on day1, day3, day7
[7] = target: estrogen receptor β (mouse (endogenous in frontal cortex of Swiss albino mice)) (UniProt O08537); assay: co-IP; as a1; tamoxifen supplemented prior to MPTP, male mice, day1, day3, day7
[8] = target: estrogen receptor β (mouse (endogenous in frontal cortex of Swiss albino mice)) (UniProt O08537); assay: condition: only estrogen and tamoxifen supplemented, MPTP-treated male mice, day7; co-IP; as a1; estrogen + tamoxifen supplemented prior to MPTP, male mice, day7
[9] = target: estrogen receptor β (mouse (endogenous in frontal cortex of Swiss albino mice)) (UniProt O08537); assay: co-IP; about 100 μg protein of frontal cortex (nuclear fractionation) of male and female mice precipitated with anti-ERβ overnight at 4 °C, Protein G agarose, washed with PBS, western blot for ERα, p65, RelB; groups: control, MPTP, estrogen + MPTP, tamoxifen + MPTP, estrogen + tamoxifen + MPTP; sacrifice on day1, day3, day7; remark: listed apart in the source

Row | binding [1] | binding [2] | binding [3] | binding [5] | binding [6] | binding [7] | binding [8] | binding [9] | Molecule | binding [4]
1 | binds weakly | no binding | no binding | no binding | binds |  |  |  | NF-κB molecule p65 (from UniProt Q04207 1-549) | no binding (condition: MPTP-treated male mice)
2 | binds weakly |  |  |  | binds | binds weakly |  |  | estrogen receptor α (from UniProt P19785 1-599) | 
3 |  |  |  |  |  |  | no binding | binds | NF-κB molecule RelB (protein, UniProt Q04863 1-558) MPSRRAARESAPELGALGSSDLSSLSLTVSRTTDELEIIDEYIKENGFGLDGTQLSEMPRLVPRGPASLSSVTLGPAAPPPPATPSWSCTLGRLVSPGPCPRPYLVITEQPKQRGMRFRYECEGRSAGSILGESSTEASKTLPAIELRDCGGLREVEVTACLVWKDWPHRVHPHSLVGKDCTDGVCRVRLRPHVSPRHSFNNLGIQCVRKKEIEAAIERKIQLGIDPYNAGSLKNHQEVDMNVVRICFQASYRDQQGHLHRMDPILSEPVYDKKSTNTSELRICRINKESGPCTGGEELYLLCDKVQKEDISVVFSTASWEGRADFSQADVHRQIAIVFKTPPYEDLEISEPVTVNVFLQRLTDGVCSEPLPFTYLPRDHDSYGVDKKRKRGLPDVLGELSSSDPHGIESKRRKKKPVFLDHFLPGHSSGLFLPPSALQPADSDFFPASISLPGLEPPGGPDLLDDGFAYDPSAPTLFTMLDLLPPAPPLASAVVGSGGAGATVVESSGPEPLSLDSFAAPGPGDVGTASLVGSNMFPNQYREAAFGGGLLSPGPEAT | 
